Data from the supplement of paper PMC7661543.
Differences between knockout arms are mostly noise.

System: SKBR3
Experiment: relative cell number vs DMSO control (72 h) (% of DMSO); higher = less growth inhibition (more cells)
Method: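 QMAP-Seq: a pool of 5 breast cancer cell lines (ZR-75-1, SKBR3, HCC-38, MDA-MB-231, BT-20), each carrying 12 doxycycline-inducible Cas9 sgRNA perturbations (11 knockouts plus non-targeting sgNT), was treated with compounds for 72 h at four 10-fold doses (10 nM-10 uM or 1 nM-1 uM range). Barcodes were amplified and sequenced, and cell number was interpolated from 293T spike-in standard curves. The result is expressed as % of the median of DMSO wells. Two biological replicates.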

N#Cc1ccc(C(c2ccc(C#N)cc2)n2cncn2)cc1 [Letrozole]
Details | relative cell number
sgRNA knockout: sgATF3, 1 nM | 106
sgRNA knockout: sgATF3, 10 nM | 86.2
sgRNA knockout: sgATF3, 100 nM | 103
sgRNA knockout: sgATF3, 1000 nM | 106
sgRNA knockout: sgATF4, 1 nM | 85.3
sgRNA knockout: sgATF4, 10 nM | 93
sgRNA knockout: sgATF4, 100 nM | 101
sgRNA knockout: sgATF4, 1000 nM | 76.2
sgRNA knockout: sgATF6, 1 nM | 112
sgRNA knockout: sgATF6, 10 nM | 85.23
sgRNA knockout: sgATF6, 100 nM | 98.9
sgRNA knockout: sgATF6, 1000 nM | 100
sgRNA knockout: sgATG7, 1 nM | 94
sgRNA knockout: sgATG7, 10 nM | 82.6
sgRNA knockout: sgATG7, 100 nM | 92
sgRNA knockout: sgATG7, 1000 nM | 98.8
sgRNA knockout: sgERN1, 1 nM | 91.1
sgRNA knockout: sgERN1, 10 nM | 77.8
sgRNA knockout: sgERN1, 100 nM | 95.5
sgRNA knockout: sgERN1, 1000 nM | 83.4
sgRNA knockout: sgHSF1, 1 nM | 105
sgRNA knockout: sgHSF1, 10 nM | 91.2
sgRNA knockout: sgHSF1, 100 nM | 111
sgRNA knockout: sgHSF1, 1000 nM | 106
sgRNA knockout: sgHSF2, 1 nM | 102
sgRNA knockout: sgHSF2, 10 nM | 83.3
sgRNA knockout: sgHSF2, 100 nM | 81.7
sgRNA knockout: sgHSF2, 1000 nM | 95.9
sgRNA knockout: sgKEAP1, 1 nM | 73
sgRNA knockout: sgKEAP1, 10 nM | 79.9
sgRNA knockout: sgKEAP1, 100 nM | 93.2
sgRNA knockout: sgKEAP1, 1000 nM | 97.9
sgRNA knockout: sgNFE2L2, 1 nM | 96.2
sgRNA knockout: sgNFE2L2, 10 nM | 95.5
sgRNA knockout: sgNFE2L2, 100 nM | 84.3
sgRNA knockout: sgNFE2L2, 1000 nM | 99.1
sgRNA knockout: sgSLC35F2, 1 nM | 100
sgRNA knockout: sgSLC35F2, 10 nM | 71.6
sgRNA knockout: sgSLC35F2, 100 nM | 98.9
sgRNA knockout: sgSLC35F2, 1000 nM | 79
sgRNA knockout: sgXBP1, 1 nM | 81.8
sgRNA knockout: sgXBP1, 10 nM | 60.4
sgRNA knockout: sgXBP1, 100 nM | 96.5
sgRNA knockout: sgXBP1, 1000 nM | 89.6

C[C@]1(c2nc3c(C(N)=O)cccc3[nH]2)CCCN1 [Veliparib]
Details | relative cell number
sgRNA knockout: sgATF3, 10 nM | 108
sgRNA knockout: sgATF3, 100 nM | 99.7
sgRNA knockout: sgATF3, 1000 nM | 95.3
sgRNA knockout: sgATF3, 10000 nM | 88.2
sgRNA knockout: sgATF4, 10 nM | 95.8
sgRNA knockout: sgATF4, 100 nM | 105
sgRNA knockout: sgATF4, 1000 nM | 88.1
sgRNA knockout: sgATF4, 10000 nM | 75
sgRNA knockout: sgATF6, 10 nM | 73.7
sgRNA knockout: sgATF6, 100 nM | 110
sgRNA knockout: sgATF6, 1000 nM | 95
sgRNA knockout: sgATF6, 10000 nM | 80.1
sgRNA knockout: sgATG7, 10 nM | 118
sgRNA knockout: sgATG7, 100 nM | 110
sgRNA knockout: sgATG7, 1000 nM | 102
sgRNA knockout: sgATG7, 10000 nM | 92.3
sgRNA knockout: sgERN1, 10 nM | 98
sgRNA knockout: sgERN1, 100 nM | 110
sgRNA knockout: sgERN1, 1000 nM | 102
sgRNA knockout: sgERN1, 10000 nM | 82.3
sgRNA knockout: sgHSF1, 10 nM | 85.6
sgRNA knockout: sgHSF1, 100 nM | 111
sgRNA knockout: sgHSF1, 1000 nM | 83.3
sgRNA knockout: sgHSF1, 10000 nM | 72
sgRNA knockout: sgHSF2, 10 nM | 97.6
sgRNA knockout: sgHSF2, 100 nM | 85.6
sgRNA knockout: sgHSF2, 1000 nM | 104
sgRNA knockout: sgHSF2, 10000 nM | 65.2
sgRNA knockout: sgKEAP1, 10 nM | 114
sgRNA knockout: sgKEAP1, 100 nM | 96.1
sgRNA knockout: sgKEAP1, 1000 nM | 84.9
sgRNA knockout: sgKEAP1, 10000 nM | 69.2
sgRNA knockout: sgNFE2L2, 10 nM | 100
sgRNA knockout: sgNFE2L2, 100 nM | 94.9
sgRNA knockout: sgNFE2L2, 1000 nM | 84.2
sgRNA knockout: sgNFE2L2, 10000 nM | 79.3
sgRNA knockout: sgSLC35F2, 10 nM | 111
sgRNA knockout: sgSLC35F2, 100 nM | 99.5
sgRNA knockout: sgSLC35F2, 1000 nM | 83.4
sgRNA knockout: sgSLC35F2, 10000 nM | 72.4
sgRNA knockout: sgXBP1, 10 nM | 103
sgRNA knockout: sgXBP1, 100 nM | 138
sgRNA knockout: sgXBP1, 1000 nM | 90.8
sgRNA knockout: sgXBP1, 10000 nM | 82.8

COc1cccc2c1C(=O)c1c(O)c3c(c(O)c1C2=O)C[C@@](O)(C(=O)CO)C[C@@H]3O[C@H]1C[C@H](N)[C@H](O)[C@H](C)O1 [Doxorubicin]
Details | relative cell number
sgRNA knockout: sgATF3, 10 nM | 83.9
sgRNA knockout: sgATF3, 100 nM | 33.1
sgRNA knockout: sgATF3, 1000 nM | 12
sgRNA knockout: sgATF3, 10000 nM | 8.04
sgRNA knockout: sgATF4, 10 nM | 84.8
sgRNA knockout: sgATF4, 100 nM | 34.5
sgRNA knockout: sgATF4, 1000 nM | 17.1
sgRNA knockout: sgATF4, 10000 nM | 7.08
sgRNA knockout: sgATF6, 10 nM | 86.2
sgRNA knockout: sgATF6, 100 nM | 42.1
sgRNA knockout: sgATF6, 1000 nM | 10.9
sgRNA knockout: sgATF6, 10000 nM | 7.04
sgRNA knockout: sgATG7, 10 nM | 78.6
sgRNA knockout: sgATG7, 100 nM | 42.8
sgRNA knockout: sgATG7, 1000 nM | 10.7
sgRNA knockout: sgATG7, 10000 nM | 10.4
sgRNA knockout: sgERN1, 10 nM | 78.2
sgRNA knockout: sgERN1, 100 nM | 41.9
sgRNA knockout: sgERN1, 1000 nM | 15.6
sgRNA knockout: sgERN1, 10000 nM | 7.02
sgRNA knockout: sgHSF1, 10 nM | 88.8
sgRNA knockout: sgHSF1, 100 nM | 34.5
sgRNA knockout: sgHSF1, 1000 nM | 13.8
sgRNA knockout: sgHSF1, 10000 nM | 5.37
sgRNA knockout: sgHSF2, 10 nM | 104
sgRNA knockout: sgHSF2, 100 nM | 40.6
sgRNA knockout: sgHSF2, 1000 nM | 20.9
sgRNA knockout: sgHSF2, 10000 nM | 9.64
sgRNA knockout: sgKEAP1, 10 nM | 89
sgRNA knockout: sgKEAP1, 100 nM | 31.6
sgRNA knockout: sgKEAP1, 1000 nM | 9.39
sgRNA knockout: sgKEAP1, 10000 nM | 6.93
sgRNA knockout: sgNFE2L2, 10 nM | 86.5
sgRNA knockout: sgNFE2L2, 100 nM | 33.3
sgRNA knockout: sgNFE2L2, 1000 nM | 14.3
sgRNA knockout: sgNFE2L2, 10000 nM | 8.37
sgRNA knockout: sgSLC35F2, 10 nM | 80.2
sgRNA knockout: sgSLC35F2, 100 nM | 32.3
sgRNA knockout: sgSLC35F2, 1000 nM | 10.3
sgRNA knockout: sgSLC35F2, 10000 nM | 10.2
sgRNA knockout: sgXBP1, 10 nM | 82.8
sgRNA knockout: sgXBP1, 100 nM | 45.9
sgRNA knockout: sgXBP1, 1000 nM | 11.9
sgRNA knockout: sgXBP1, 10000 nM | 8
